At least one peptide structure holds a part that was inferred or is arguable (an end, a ring closure or a residue).
Experiments:
[1] = system: encephalitogenic MOG35-55 reactive T cells (LNCs); test: Ex vivo recall response of lymph node cells from MOG35-55/CFA-immunized mice (proliferation, cytokine ELISA); format: in vivo, C57Bl/6J mice
Procedure: (§1) Mice were subcutaneously immunized with 150 μg MOG35-55 emulsified in complete Freund's adjuvant (CFA) containing 150 μg Mt H37Ra with or without 0.5 mg/kg HIV peptides. Ten days post immunization, draining lymph nodes were removed and cultured in triplicate in the presence or absence of antigen, as previously described. The cultures were incubated for 72 h at 37° C. [3H] Thymidine ([…]) was added for an additional 16 h of incubation and the cultures were then harvested and counted using a Beta Counter. Pro-inflammatory cytokine analysis of IFNγ, IL-12, and TNFα were determined by ELISA, 24 h after cell activation, according to standard protocols from PharMingen (San Diego, Calif.), as described previously
as §1, with “described previously.” for “described previously”
First, the toxicity of the peptide was investigated by injecting naïve C57BL mice i.v. with 50 mg/kg of the peptides. […] Then, C57Bl/6J mice that were induced to develop clinical EAE by immunization with MOG35-55/CFA were given a dose of the peptide that was 100-fold less than the one examined in the toxicity assay, i.e. 10 μg per mouse (0.5 mg/kg), or PBS as a control. On day 10 post immunization, prior to the onset of clinical signs of EAE, the lymph node cells (LNCs) from each treatment group were cultured for 72 h in microtiter wells in triplicate (0.5×10^6/well) in the absence or presence of MOG35-55 (2.5 or 5 μg/ml; SEQ ID NO: 15). [H3] Thymidine was added for the last 18 h. The LNCs were analyzed ex vivo for their recall proliferative response to the immunizing MOG35-55 peptide and for secretion of pro-inflammatory cytokines.
Given that the inhibition of the T-cell proliferative response by the peptide was associated with reduction in pro-inflammatory cytokine secretion in vitro (FIG. 3C); the corresponding effect was examined ex vivo.
C57Bl mice were injected for EAE induction. Ten days after immunization, draining lymph node cells from each treatment group were pooled and analyzed for their ex vivo recall proliferative response to MOG35-55. As a control, a non-related peptide was used

The chains behind the UniProt entries cited, without tags or fusion partners. Where a name states a change or a piece, a line headed by the entry shows the natural chain unless it says otherwise.
UniProt P01849: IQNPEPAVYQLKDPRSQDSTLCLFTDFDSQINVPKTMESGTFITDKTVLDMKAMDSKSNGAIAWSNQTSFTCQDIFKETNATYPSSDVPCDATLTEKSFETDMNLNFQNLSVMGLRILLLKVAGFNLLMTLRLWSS

[2] = system: MOG35-55-stimulated T cells; test: IFNγ secretion by MOG35-55-stimulated T cells (ELISA); format: cell-based, murine; conditions: 1 μM peptide, 48 hr
[3] = Fluorescent measurements of peptide-membrane interactions (Trp anisotropy, LUV titration); format: binding; conditions: PC:Chol LUV, 1 μM peptide in PBS
RAW264.7 macrophages = test: TNFα secretion by LPS-stimulated macrophages (ELISA); format: cell-based, mouse; conditions: 1 μM peptide 2 hr, then LPS 10 ng/ml 5 hr
[4] = system: MOG35-55-specific murine line T cells (mMOG35-55 T-cells); conditions: 1 μM peptide
[5] = target: T1, core peptide of TMD from TCRα, CP (GLRILLLKV; SEQ ID NO: 14) (Mus musculus, UniProt P01849); test: Fluorescent measurements of NBD-labeled core peptide of TCRα TMD in LUV; format: binding; conditions: PC:Chol LUV, sequential doses
T1 construct: termed CP (GLRILLLKV); made in house
Procedure: The fluorescence experiments were performed using NBD-labeled core peptides of TCRα (NBD-CP). Fluorescence spectra were obtained at room temperature, with excitation set at 467 nm (10 nm slit) and the emission scan at 500-600 nm (10 nm slits). In a typical experiment, the NBD-CP was first added from a stock solution in DMSO (final concentration of 0.1 μM and a maximum of 0.25% (v/v) DMSO) to a dispersion of PC:Chol LUV (200 μM) in PBS. This was followed by the addition of unlabeled HIV peptides in several sequential doses ranging from 2.5×10-3 μM to 0.4 μM. Fluorescence spectra were obtained before and after the addition of unlabeled HIV peptides. The fluorescence values were corrected by subtracting the corresponding blank (buffer with the same vesicle concentration).
The TCR complex's TMD helices mediate receptor activation through the interactions between basic and acidic residues. […] To investigate this possibility, we utilized NBD fluorescence, which is sensitive to the membrane surroundings; its emission intensity is increased via membrane insertion (Rapaport et al. Embo J. 1995; 14(22):5524-5531). […] Their initial fluorescence emission spectra were first measured in the presence of LUVs alone and then in the presence of several sequential doses of unlabeled peptide and its mutants (SEQ ID NO: 3, 9 and 10) (FIG. 5H).

[6] = system: membranes of mMOG35-55 T cells and Jurkat T cells; test: Cellular localization of NBD-labeled peptides in T cells (confocal microscopy); format: cell-based, murine and human; conditions: NBD-labeled peptide 1 μM, DiD membrane dye vs CMTMR cytoplasmic dye
[7] = system: experimental autoimmune encephalomyelitis (EAE); test: MOG35-55-induced experimental autoimmune encephalomyelitis (EAE); format: in vivo, C57BL/6J mice
[8] = system: TCRα on antigen-stimulated mMOG35-55-specific line T cells; test: Co-localization of Rho-labeled peptides with TCRα (confocal microscopy); format: cell-based, murine; conditions: activated T cells
Procedure: FITC excitation was set at 488 nm, with the laser set at 5% power and fluorescence was recorded from 502-525 nm. Rhodamine excitation was set at 559 nm, with the laser set at 1% power and the fluorescence data were collected above 580 nm. Each cell was imaged for TCRα staining (denoted in green) and for peptide staining (denoted in red). Using ImageJ, the images (n=20) were set to binary color and the two revised pictures were used to create a new picture of only what merged between them. The merged picture was divided by the revised red picture to give the percentage of co-localization.
Co-localization of the peptide with the TCR was assessed utilizing confocal microscopy (FIG. 5 D-E). Antigen-stimulated mMOG35-55-specific line T cells were probed with antibodies against TCRα followed by staining with secondary FITC-labeled antibodies (left column) and with the Rho-labeled peptide (SEQ ID NO: 3) (middle column). To evaluate the co-localization between the molecules, a merged image was produced (right column). […] As a control, AMP (SEQ ID NO: 13), a non-related antimicrobial peptide (Papo et al. J Biol Chem. 2005; 280(11):10378-10387), was labeled with rhodamine and its localization on T cells was detected.

[9] = 0.5 mg/kg, versus PBS-treated mice

## CC[C@H](C)[C@H](NC(=O)[C@H](CCC(N)=O)NC(=O)[C@H](CCC(=O)O)NC(=O)[C@H](CC(C)C)NC(=O)[C@H](CO)NC(=O)[C@H](CCCCN)NC(=O)[C@H](CC(N)=O)NC(=O)[C@@H](N)CO)C(=O)N[C@@H](Cc1c[nH]c2ccccc12)C(=O)N[C@@H](CC(N)=O)C(=O)N[C@@H](Cc1c[nH]cn1)C(=O)N[C@H](C(=O)N[C@H](C(=O)N[C@@H](Cc1c[nH]c2ccccc12)C(=O)N[C@@H](CCSC)C(=O)N[C@@H](CCC(=O)O)C(=O)N[C@@H](Cc1c[nH]c2ccccc12)C(=O)N[C@@H](CC(=O)O)C(N)=O)[C@@H](C)O)[C@@H](C)O [PEP 6, SNKSLEQIWNHTTWMEWD]
[1]; 0.5 mg/kg peptide, day 10 post immunization
  ex vivo recall proliferative response of LNCs to MOG35-55: significant reduction
[1]; 0.5 mg/kg, MOG35-55 5 μg/ml, 24 h
  IFNγ secretion by LNCs: 9 ng/mL
[1]; 0.5 mg/kg, stimulation by MOG35-55
  TNFα secretion by LNCs: barely detected
[1]; [9]
  inhibition of IFNγ secretion by LNCs: 64%
  inhibition of TNFα secretion by LNCs: 90%
[1]; without stimulation by MOG35-55, versus PBS-treated mice
  basal IL-12 secretion by LNCs: comparable significant basal level
[2]
  IFNγ secretion: reduction in IFNγ secretion
[3]
  binding affinity constant (Ka) to membrane: 12000 M⁻¹
RAW264.7 macrophages
  TNFα secretion: did not inhibit
[4]
  T-cell proliferation activated by MOG35-55 antigen and APCs: inhibited
[4]; PMA 50 ng/ml, ionomycine 1 μM
  T-cell proliferation activated by PMA and ionomycine: did not inhibit
[4]; antibodies 2 μg/ml
  T-cell proliferation activated by CD3 and CD28 antibodies: did not inhibit
[5]
  fluorescence emission maxima of NBD-CP upon addition of unlabeled peptide: increased sharply
[6]
  co-localization with T-cell membranes: significant tendency
[7]; 0.5 mg/kg at day 0, from day 20
  EAE severity (clinical score): significant reduction in EAE severity
[7]; 0.5 mg/kg, after encephalitogenic challenge
  onset of clinical manifestation of EAE: 10 days
[8]
  co-localization with TCRα molecules: significantly higher

Reference: patent US20150175666A1, “PEPTIDES DERIVED FROM HIV GP41 FOR TREATING T-CELL MEDIATED PATHOLOGIES” (Yeda Research and Development Co. Ltd., priority 2012, published 2015)
